Measured values from article doi:10.1101/2025.08.26.672501.
Results are given in words; binding and its absence hold for the method and conditions named. A result given as binding can be weak or reduced; the word gives no strength. Sequences can lack the tags named with a protein.

Chains of the proteins cited; added tags and fusions are not shown. Lines headed by an entry give the natural chain unless they say otherwise; changes in a name come on top.
UniProt Q96N66: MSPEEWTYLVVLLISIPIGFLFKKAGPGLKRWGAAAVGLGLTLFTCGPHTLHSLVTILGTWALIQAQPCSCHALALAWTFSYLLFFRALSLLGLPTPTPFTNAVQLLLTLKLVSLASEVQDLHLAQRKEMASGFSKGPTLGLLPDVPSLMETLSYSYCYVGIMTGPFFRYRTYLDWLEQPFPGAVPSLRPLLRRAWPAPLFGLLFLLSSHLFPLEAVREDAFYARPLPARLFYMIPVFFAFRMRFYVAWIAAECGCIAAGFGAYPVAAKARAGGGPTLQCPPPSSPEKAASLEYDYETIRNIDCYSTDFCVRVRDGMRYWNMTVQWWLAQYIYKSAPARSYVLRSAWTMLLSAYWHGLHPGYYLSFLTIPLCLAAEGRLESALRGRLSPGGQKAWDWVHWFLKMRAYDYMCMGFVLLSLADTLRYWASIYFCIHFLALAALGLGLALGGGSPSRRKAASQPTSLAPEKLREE

Target: MBOAT7-His (human) (UniProt Q96N66)
Test: pull-down

B1: Flag-CDS2 (protein, UniProt O95674 1-445)
chain: MTELRQRVAHEPVAPPEDKESESEAKVDGETASDSESRAESAPLPVSADDTPEVLNRALSNLSSRWKNWWVRGILTLAMIAFFFIIIYLGPMVLMIIVMCVQIKCFHEIITIGYNVYHSYDLPWFRTLSWYFLLCVNYFFYGETVTDYFFTLVQREEPLRILSKYHRFISFTLYLIGFCMFVLSLVKKHYRLQFYMFGWTHVTLLIVVTQSHLVIHNLFEGMIWFIVPISCVICNDIMAYMFGFFFGRTPLIKLSPKKTWEGFIGGFFATVVFGLLLSYVMSGYRCFVCPVEYNNDTNSFTVDCEPSDLFRLQEYNIPGVIQSVIGWKTVRMYPFQIHSIALSTFASLIGPFGGFFASGFKRAFKIKDFANTIPGHGGIMDRFDCQYLMATFVNVYIASFIRGPNPSKLIQQFLTLRPDQQLHIFNTLRSHLIDKGMLTSTTEDE
binding: binds
